The experiment addresses 0N Tau (endogenous) (mouse (endogenous in C57BL/6 brain)). Nature of the experiment: affinity purification with mass spectrometry; parallel IPs from 1 mg pre-cleaned brain lysate of 2-month-old C57BL/6 mice with pan-Tau (Dako Tau, M) or 0N-, 1N-, 2N-specific Tau antibodies on protein G-Sepharose, overnight at 4 °C, IP buffer 25 mM Tris-HCl pH 7.4, 150 mM NaCl, 1 mM EDTA, 1% Nonidet P-40, 5% glycerol; Dako IP from Tau KO lysate as negative control; TMT multiplexed quantitative LC-MS/MS; hit: at least 10% above the KO IP with p ≤0.05; preference: ratio at least 10% higher than for the other two isoforms.

No constants are given. Whether binding was seen depends on the method and setting. Binding seen in cells or lysates may run through a third protein. A yes stands for co-enrichment or nearness to the bait. Other partners may have been found.

B1: synaptogyrin-3 (endogenous) (protein, UniProt Q8R191 1-229)
chain: MEGASFGAGRAGAAFDPVSFARRPQTLLRVVSWVFSIAVFGPIVNEGYVNSDSGPELRCVFNGNAGACRFGVVLGLGAFIACVAFLLLDVRFQQISSVRDRRRAVLLDLGFSGVWSFLWFVGFCFLTNQWQRTTPGPGTAQAGDAARAAIAFSFFSILSWVALTVKALQRFRLGTDMSLFATDQLGTGAAQAYPGYPVGSGVEGTETYQSPPFTETLDTSSKGYQVPAY
For the molecule B1, the binding entry is recorded as “binds”.

Source of the values: paper PMC4825019.
